This is an account of results in paper PMC12056667 (Chemical Science, 2025).

This series relates to Tet(X7). Put plainly: Fluorescence polarisation binding assay of probes with purified TDase. As for the experimental part:
NADPH was not included to prevent turnover of the probe to the hydroxylated product, which would likely have a lower binding affinity than the initial probes. Screens were conducted in pH 7.0 buffer with addition of 0.01% Triton-X100 detergent in non-binding plates to minimise adsorption to the plate wells.[45]
Aliquots of TDases were thawed and serially diluted with the assay buffer (100 mM Tris, pH 7.0 with 0.01% Triton X-100) in a V-bottom 96-well plate (Greiner Bio-One). 12.5 μL of each concentration of enzyme was transferred in quadruplicate to a 384-well black, non-binding microtiter plate (Greiner Bio-One). Aliquots of 2 mM stock of fluorescent probes 5 and 6 in DMSO were thawed and diluted to 50 nM in the assay buffer with 2 μM FAD and 10 mM MgCl2. 12.5 μL of this solution was added to wells containing enzyme. A negative control of 12.5 μL of the probe solution with 12.5 μL of the assay buffer was included on each plate. The plate was briefly centrifuged (1000 rpm), then incubated at ambient temperature for 30 min before measuring the FP response using a PHERAstar FS microplate reader (BMG Labtech) equipped with an FP optic module (excitation = 540 ± 20 nm, Emission = 590 ± 20 nm, 200 flashes per well). ΔmP values were calculated by subtracting the average mP of the negative controls from the mP measured for each well. […]
(Fluorescence polarisation rises when a labelled molecule tumbles more slowly, as on binding a larger partner.)

`CN(C)c1ccc2c(-c3ccc(NC(=S)NCC(=O)Nc4cc(N(C)C)c5c(c4O)C(=O)C4=C(O)[C@]6(O)C(=O)C(C(N)=O)=C(O)C(N(C)C)[C@@H]6C[C@@H]4C5)cc3C(=O)[O-])c3ccc(=[N+](C)C)cc-3oc2c1` (some centres unmarked) [Probe 6, TRITC-glycyl-minocycline]: the “difference in Kd between Tet(X3) and Tet(X7)” value was approximately 5 fold.

With `CN(C)c1ccc2c(-c3ccc(C(=O)NCC(=O)Nc4cc(N(C)C)c5c(c4O)C(=O)C4=C(O)[C@]6(O)C(=O)C(C(N)=O)=C(O)[C@H](N(C)C)[C@@H]6C[C@@H]4C5)cc3C(=O)[O-])c3ccc(=[N+](C)C)cc-3oc2c1` [Probe 5], the “difference in Kd between Tet(X3) and Tet(X7)” value is approximately 5 fold.
